PubChem BioAssay AID743121 | NCATS | 2013
The whole screen tested about 26,000 reagents; this is a random part of them. 167 of all reagents (0.63%) count as active. 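Calls are per gene from RSA p-values that are not deposited; an individual active-marked siRNA can sensitise only weakly.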 Unmarked entries are inactive. Reagents against one gene are numbered here. Further read-outs or replicates are left out here. Reagent sequences are not shown.

Screen: 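Partners whose loss is lethal together with topoisomerase I blockade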 (primary screen)
Cells: MDA-MB-231 cells, a human breast cancer line
Reagent: single siRNA against human genes, 20 nM siRNA (0.8 pmol per well)
Time to read-out: 120 h (drug added 48 h after transfection, read 72 h later)
Conditions: camptothecin 20 nM (about EC30) for 72 h; vehicle 0.1% DMSO in parallel plates
Measurement: 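CellTiter-Glo ATP signal, scaled to control siRNA as percent viability; sensitisation given as log2 of untreated divided by camptothecin-treated viability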
Reading the numbers: log2 vehicle/camptothecin viability: higher = stronger sensitisation to camptothecin; viability with camptothecin: higher = more viable cells
Units: viability with camptothecin in % of control
Call rule: 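Each gene scored by redundant siRNA activity (RSA) over its individual siRNA ratios; a gene is called active at p < 0.001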

PEX5L (peroxisomal biogenesis factor 5 like) #1 scored log2 vehicle/camptothecin viability -0.308; viability with camptothecin 61.8.
For PEX5L (peroxisomal biogenesis factor 5 like) #2 the deposit lists log2 vehicle/camptothecin viability -0.139; viability with camptothecin 98.9.
Against PEX5L (peroxisomal biogenesis factor 5 like) #3, the values are log2 vehicle/camptothecin viability -0.31; viability with camptothecin 94.2.
With knock-down of PEX5L (peroxisomal biogenesis factor 5 like) #4, the record shows log2 vehicle/camptothecin viability -0.469; viability with camptothecin 105.
Depletion of CYP2D7 #1 gave: log2 vehicle/camptothecin viability -0.0848; viability with camptothecin 94.7.
Depletion of CYP2D7 #2 gave: log2 vehicle/camptothecin viability -0.196; viability with camptothecin 119.
CYP2D7 #3 scored log2 vehicle/camptothecin viability 0.153; viability with camptothecin 96.
CYP2D7 #4 scored log2 vehicle/camptothecin viability -0.244; viability with camptothecin 71.7.
CYP2D7 #5 showed log2 vehicle/camptothecin viability -0.674; viability with camptothecin 98.1.
Against F2RL2 (coagulation factor II thrombin receptor like 2) #1 the deposit lists log2 vehicle/camptothecin viability -0.352; viability with camptothecin 73.3.
F2RL2 (coagulation factor II thrombin receptor like 2) #2 scored log2 vehicle/camptothecin viability -0.312; viability with camptothecin 84.
Against F2RL2 (coagulation factor II thrombin receptor like 2) #3, the values are log2 vehicle/camptothecin viability -0.416; viability with camptothecin 85.7.
With knock-down of F2RL2 (coagulation factor II thrombin receptor like 2) #4, the screen gave log2 vehicle/camptothecin viability -0.528; viability with camptothecin 58.4.
For SPHK1 (sphingosine kinase 1) #1, the entry reads log2 vehicle/camptothecin viability 0.129; viability with camptothecin 95.6.
Against SPHK1 (sphingosine kinase 1) #2, the values are log2 vehicle/camptothecin viability -0.209; viability with camptothecin 15.
For SPHK1 (sphingosine kinase 1) #3 the deposit lists log2 vehicle/camptothecin viability -0.399; viability with camptothecin 57.5.
With knock-down of SPHK1 (sphingosine kinase 1) #4 the results were log2 vehicle/camptothecin viability 0.197; viability with camptothecin 30.5.

2 entries from above, limited to “viability with camptothecin”.
PEX5L (peroxisomal biogenesis factor 5 like) #1: 61.8
PEX5L (peroxisomal biogenesis factor 5 like) #2: 98.9
